Values quoted from earlier work in patent US20040116382A1, “Food products containing cyclodextrins having beneficial hypocholesterolemic effects and method of making and communicating the benefit of such products” (priority 2002, published 2004).

Details: at 25° C.

For `OC[C@H]1O[C@@H]2O[C@H]3[C@H](O)[C@@H](O)[C@@H](O[C@H]4[C@H](O)[C@@H](O)[C@@H](O[C@H]5[C@H](O)[C@@H](O)[C@@H](O[C@H]6[C@H](O)[C@@H](O)[C@@H](O[C@H]7[C@H](O)[C@@H](O)[C@@H](O[C@H]1[C@H](O)[C@H]2O)O[C@@H]7CO)O[C@@H]6CO)O[C@@H]5CO)O[C@@H]4CO)O[C@@H]3CO` [alpha-cyclodextrin], the solubility is given as 14 gm/100 mil.
